Assay: general procedure: solution-phase peptide synthesis; HONB/DCC; HOBT/WSC; HONB/DIC

Substance | step yield (late stage modification step) [%] | also measured
(2R,6R)-2-Fmoc-amino-6,7-bis(PamO)-4-THT-Glu-Gly-D-Glu-OH | 98 | –
(2R,6R)-2-hexanoylamino-6-hexanoyloxy-7-PamO-4-THT-Gly-Gly-Gly-Glu (O^t Bu)-O^t Bu | – | step yield (lipidation step): 88%
(2R,6R)-2-hexanoylamino-6-hexanoyloxy-7-PamO-4-THT-Gly-Gly-Gly-Glu-OH | 95 | –
(2R,6S)-2-Fmoc-amino-6,7-bis(PamO)-4-THT-Gly-Gly-Gly-Glu-(O^t Bu)-Thr(^t Bu)-Thr(^t Bu)-O^t Bu | – | step yield (lipidation step): 97%
(2R,6S)-2-amino-6,7-bis (PamO)-4-THT-Gly-Gly-Gly-Glu(O^t Bu)-Thr(^t Bu)-Thr(^t Bu)-O^t Bu | 90 | –
H-Gly-Gly-Gly-Glu(O^t Bu)-Thr(^t Bu)-Thr(^t Bu)-O^t Bu | 98 | –
Z-Gly-Gly-Gly-Glu(O^t Bu)-Thr(^t Bu)-O^t Bu | – | step yield (coupling step): 85%
Z-Gly-Gly-Gly-Glu(O^t Bu)-Thr(^t Bu)-Thr(^t Bu)-O^Bu | – | step yield (coupling step): 75.4%

— patent US5478808A (Takeda Chemical Industries, Ltd., priority 1992, dated 1995)
